The list shows a part of the results. Residues, ends and D or L forms follow the SMILES beside them. *: point of attachment. Cbz = O=C(OCc1ccccc1)*
Assays:
Experiment in all cases: log2 fold change, soluble protein after heating vs DMSO (PISA); higher = thermal stabilisation; K562 cells, 10 uM, 30 min; active = over 0.2 and 3.5 SD of the protein, either way, in both replicates (recomputed)
[1] = compound: C1COCCN1CCN2C3=CC=CC=C3N=C2NC(=O)C4=CC(=CC=C4)[N+](=O)[O-] [IRAK-1-4 Inhibitor I]
Method in brief: (§1)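 Aliquots of K562 cells (2×10^6 cells/mL) treated with 10 μM compound for 30 min were heated for 3 min over 48°C-58°C. After pooling and extraction in PBS with 0.5% NP-40 at 4°C, soluble protein from a 21,000xg, 90 min spin was quantified by TMTpro 16plex LC-MS/MS with channel sums equalised. Thermal stability is expressed against control samples, from duplicates, as a log2 fold change.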

By UniProt entry, the sequences of proteins in these tests, tags left out. Where a name states a change or a piece, a line headed by the entry shows the natural chain unless it says otherwise.
UniProt Q8N1F7: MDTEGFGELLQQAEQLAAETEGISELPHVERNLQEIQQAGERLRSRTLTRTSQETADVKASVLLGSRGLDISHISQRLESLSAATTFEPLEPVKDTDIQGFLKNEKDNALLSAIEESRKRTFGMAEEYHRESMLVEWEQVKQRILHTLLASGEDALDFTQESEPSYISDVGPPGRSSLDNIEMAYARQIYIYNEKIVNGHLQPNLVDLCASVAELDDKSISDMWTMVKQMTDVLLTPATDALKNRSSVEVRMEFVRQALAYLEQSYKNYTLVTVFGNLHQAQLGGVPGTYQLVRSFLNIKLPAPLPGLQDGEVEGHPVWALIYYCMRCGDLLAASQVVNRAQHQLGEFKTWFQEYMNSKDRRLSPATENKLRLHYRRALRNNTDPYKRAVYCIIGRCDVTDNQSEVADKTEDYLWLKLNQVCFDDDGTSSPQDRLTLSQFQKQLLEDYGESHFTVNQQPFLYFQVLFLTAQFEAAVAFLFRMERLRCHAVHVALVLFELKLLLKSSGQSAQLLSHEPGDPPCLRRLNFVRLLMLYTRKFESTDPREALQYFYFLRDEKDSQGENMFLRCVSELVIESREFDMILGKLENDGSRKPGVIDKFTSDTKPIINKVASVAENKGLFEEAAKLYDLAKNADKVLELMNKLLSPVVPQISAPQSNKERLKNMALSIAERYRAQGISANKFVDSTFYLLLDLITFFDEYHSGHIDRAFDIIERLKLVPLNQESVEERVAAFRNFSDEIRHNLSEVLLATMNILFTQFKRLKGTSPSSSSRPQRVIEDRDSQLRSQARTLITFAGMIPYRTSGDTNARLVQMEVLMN
UniProt O14841: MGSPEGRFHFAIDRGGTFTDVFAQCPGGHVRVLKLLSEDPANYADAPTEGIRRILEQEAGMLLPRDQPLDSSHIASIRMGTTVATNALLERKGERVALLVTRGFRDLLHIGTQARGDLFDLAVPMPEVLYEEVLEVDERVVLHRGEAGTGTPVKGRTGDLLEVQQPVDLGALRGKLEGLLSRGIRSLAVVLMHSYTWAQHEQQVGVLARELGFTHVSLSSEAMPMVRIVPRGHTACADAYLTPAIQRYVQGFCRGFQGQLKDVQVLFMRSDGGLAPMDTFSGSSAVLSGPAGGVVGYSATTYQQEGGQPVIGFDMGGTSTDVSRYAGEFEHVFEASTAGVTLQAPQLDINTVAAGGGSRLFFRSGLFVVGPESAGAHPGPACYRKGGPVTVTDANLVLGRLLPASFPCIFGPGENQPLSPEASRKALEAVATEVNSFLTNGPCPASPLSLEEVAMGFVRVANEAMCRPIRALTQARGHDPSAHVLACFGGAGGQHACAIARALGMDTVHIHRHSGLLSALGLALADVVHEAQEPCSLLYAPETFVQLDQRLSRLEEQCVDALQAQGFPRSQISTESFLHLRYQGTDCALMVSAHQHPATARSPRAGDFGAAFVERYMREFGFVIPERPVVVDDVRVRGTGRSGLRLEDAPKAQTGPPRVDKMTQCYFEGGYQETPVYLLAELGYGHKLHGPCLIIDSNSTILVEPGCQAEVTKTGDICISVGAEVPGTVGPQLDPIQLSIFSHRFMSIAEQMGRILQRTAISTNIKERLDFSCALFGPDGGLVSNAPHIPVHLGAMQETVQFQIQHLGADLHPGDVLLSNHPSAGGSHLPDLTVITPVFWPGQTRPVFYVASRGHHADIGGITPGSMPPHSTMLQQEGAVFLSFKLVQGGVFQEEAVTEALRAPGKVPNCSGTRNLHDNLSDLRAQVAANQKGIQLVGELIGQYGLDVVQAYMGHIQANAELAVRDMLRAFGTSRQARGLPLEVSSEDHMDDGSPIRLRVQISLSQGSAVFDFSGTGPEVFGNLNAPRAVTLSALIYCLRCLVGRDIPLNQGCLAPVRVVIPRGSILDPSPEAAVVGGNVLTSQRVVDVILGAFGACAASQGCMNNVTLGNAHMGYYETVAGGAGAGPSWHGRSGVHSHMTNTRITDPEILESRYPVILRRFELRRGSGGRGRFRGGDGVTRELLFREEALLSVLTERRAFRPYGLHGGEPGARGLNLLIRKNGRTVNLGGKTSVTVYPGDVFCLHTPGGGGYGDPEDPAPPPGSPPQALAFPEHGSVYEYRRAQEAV
UniProt P61970, whole entry, looked up: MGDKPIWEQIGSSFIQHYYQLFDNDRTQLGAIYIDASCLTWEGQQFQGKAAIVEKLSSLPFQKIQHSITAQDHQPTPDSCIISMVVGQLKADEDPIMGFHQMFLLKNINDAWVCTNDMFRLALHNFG
UniProt Q9BSD7: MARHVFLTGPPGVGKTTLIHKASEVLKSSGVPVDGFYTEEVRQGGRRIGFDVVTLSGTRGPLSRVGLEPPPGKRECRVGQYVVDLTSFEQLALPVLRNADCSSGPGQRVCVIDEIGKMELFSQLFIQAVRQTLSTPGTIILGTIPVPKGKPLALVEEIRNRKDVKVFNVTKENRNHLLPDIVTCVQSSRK
UniProt Q9H0G5: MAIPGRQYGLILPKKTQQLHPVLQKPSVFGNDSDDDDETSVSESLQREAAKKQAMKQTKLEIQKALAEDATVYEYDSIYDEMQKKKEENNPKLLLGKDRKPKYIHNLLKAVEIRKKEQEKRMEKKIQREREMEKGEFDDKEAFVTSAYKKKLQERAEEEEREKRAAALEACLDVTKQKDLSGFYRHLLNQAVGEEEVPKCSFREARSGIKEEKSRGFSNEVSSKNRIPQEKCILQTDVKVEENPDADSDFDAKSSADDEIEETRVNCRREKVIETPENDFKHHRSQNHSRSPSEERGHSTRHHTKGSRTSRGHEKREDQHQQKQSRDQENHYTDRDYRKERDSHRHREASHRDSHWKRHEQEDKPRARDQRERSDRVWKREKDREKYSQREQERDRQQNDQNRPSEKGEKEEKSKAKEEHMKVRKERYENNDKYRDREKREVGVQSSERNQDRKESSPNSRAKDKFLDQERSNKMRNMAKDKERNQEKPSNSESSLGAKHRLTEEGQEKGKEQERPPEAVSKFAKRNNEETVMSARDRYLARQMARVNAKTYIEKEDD
UniProt Q96E22: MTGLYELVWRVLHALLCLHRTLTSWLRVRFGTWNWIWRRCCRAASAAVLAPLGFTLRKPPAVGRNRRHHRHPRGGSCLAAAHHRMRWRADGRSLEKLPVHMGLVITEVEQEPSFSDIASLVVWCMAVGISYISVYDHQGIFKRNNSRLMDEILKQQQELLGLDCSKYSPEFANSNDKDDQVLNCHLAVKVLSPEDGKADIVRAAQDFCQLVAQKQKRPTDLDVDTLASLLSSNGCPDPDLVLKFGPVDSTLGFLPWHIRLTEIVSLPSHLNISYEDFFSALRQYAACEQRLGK
UniProt Q8NFH4: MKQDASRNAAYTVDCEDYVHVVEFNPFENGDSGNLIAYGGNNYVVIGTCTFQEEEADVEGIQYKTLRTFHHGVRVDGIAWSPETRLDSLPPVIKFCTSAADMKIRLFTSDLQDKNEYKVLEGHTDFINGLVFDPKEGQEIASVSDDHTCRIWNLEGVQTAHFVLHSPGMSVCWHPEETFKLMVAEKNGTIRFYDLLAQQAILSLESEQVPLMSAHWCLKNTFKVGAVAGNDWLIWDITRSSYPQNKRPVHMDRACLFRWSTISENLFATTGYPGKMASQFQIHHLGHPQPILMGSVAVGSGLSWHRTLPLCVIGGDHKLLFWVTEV
UniProt Q9NPF4: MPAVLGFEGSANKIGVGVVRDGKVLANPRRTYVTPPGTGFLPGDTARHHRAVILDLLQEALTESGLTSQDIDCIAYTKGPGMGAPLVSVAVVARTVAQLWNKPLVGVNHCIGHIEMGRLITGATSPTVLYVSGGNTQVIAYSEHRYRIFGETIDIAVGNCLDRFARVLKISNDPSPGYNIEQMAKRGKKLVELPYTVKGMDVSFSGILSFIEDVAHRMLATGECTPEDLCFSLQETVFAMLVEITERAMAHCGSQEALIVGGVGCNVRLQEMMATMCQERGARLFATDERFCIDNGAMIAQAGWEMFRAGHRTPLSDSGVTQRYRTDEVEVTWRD
UniProt P50583: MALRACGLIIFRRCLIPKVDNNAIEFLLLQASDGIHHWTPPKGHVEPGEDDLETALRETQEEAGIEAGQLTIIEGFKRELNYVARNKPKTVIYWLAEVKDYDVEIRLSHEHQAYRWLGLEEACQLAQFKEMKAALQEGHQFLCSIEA
UniProt Q02818: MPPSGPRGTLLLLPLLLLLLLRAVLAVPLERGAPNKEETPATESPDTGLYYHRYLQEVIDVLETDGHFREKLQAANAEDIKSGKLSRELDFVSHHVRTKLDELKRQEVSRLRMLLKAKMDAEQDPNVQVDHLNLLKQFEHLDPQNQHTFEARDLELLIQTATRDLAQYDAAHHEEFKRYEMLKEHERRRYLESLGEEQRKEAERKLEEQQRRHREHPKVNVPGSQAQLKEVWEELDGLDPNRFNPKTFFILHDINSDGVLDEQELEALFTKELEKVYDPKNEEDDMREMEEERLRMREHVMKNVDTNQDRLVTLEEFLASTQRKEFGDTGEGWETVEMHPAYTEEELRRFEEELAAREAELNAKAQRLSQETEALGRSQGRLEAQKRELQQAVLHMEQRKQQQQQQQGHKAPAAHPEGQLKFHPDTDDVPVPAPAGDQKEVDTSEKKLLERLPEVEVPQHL
UniProt Q5SWX8: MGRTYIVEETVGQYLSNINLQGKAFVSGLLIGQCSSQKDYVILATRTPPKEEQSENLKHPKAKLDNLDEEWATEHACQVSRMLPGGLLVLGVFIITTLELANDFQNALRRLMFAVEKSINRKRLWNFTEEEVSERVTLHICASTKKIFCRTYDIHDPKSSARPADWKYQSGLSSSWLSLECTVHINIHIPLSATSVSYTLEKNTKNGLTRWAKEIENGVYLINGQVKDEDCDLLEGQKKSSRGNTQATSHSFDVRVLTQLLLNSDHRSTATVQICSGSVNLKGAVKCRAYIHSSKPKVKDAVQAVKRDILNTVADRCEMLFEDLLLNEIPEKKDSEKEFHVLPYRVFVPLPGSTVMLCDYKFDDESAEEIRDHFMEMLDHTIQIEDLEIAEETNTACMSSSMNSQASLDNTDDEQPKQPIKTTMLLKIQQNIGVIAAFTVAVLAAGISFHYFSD
UniProt P07237: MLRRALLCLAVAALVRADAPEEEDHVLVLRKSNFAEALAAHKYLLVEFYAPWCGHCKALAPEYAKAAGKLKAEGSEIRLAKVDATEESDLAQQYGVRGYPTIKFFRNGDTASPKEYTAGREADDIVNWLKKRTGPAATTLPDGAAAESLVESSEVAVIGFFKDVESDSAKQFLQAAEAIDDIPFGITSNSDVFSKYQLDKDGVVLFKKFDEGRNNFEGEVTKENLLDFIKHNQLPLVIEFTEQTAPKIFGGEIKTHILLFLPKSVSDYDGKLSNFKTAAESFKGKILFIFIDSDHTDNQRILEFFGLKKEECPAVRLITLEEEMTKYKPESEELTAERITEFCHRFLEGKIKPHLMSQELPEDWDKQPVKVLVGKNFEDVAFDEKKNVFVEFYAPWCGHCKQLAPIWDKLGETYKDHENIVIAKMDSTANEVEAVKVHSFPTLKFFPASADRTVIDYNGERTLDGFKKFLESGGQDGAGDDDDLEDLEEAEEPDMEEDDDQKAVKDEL
UniProt Q8NFH3: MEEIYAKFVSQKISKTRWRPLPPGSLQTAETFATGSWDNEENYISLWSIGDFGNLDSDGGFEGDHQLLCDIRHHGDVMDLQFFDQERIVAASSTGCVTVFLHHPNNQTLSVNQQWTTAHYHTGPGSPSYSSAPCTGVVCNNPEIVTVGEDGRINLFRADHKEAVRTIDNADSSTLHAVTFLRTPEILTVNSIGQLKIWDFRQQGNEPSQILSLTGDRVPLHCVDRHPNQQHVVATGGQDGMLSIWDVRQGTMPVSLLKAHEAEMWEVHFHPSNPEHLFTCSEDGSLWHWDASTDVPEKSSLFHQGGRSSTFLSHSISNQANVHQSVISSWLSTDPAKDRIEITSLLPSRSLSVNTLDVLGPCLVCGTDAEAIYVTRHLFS

[2] = compound: C=CC(=O)N1CCC[C@@H](n2nc(-c3ccc(Oc4ccccc4)cc3)c3c(N)ncnc32)C1 [ibrutinib]
Method in brief: as §1

[3] = compound: CC(=O)c1cnc2ccc(-c3cc(Cl)c(O)c(Cl)c3)nc2c1N[C@H]1CC[C@H](CN(C)C)CC1
Method in brief: as §1

[4] = compound: CC(C)(C)Cn1c(N)nc2ccc(-c3[nH]c(C(C)(C)C)nc3-c3ccc(F)cc3)nc21 [ralimetinib]
Method in brief: as §1

[5] = compound: CC(C)(O)CC(=O)NCCn1ccc2ncnc(Nc3ccc(Oc4cccc(C(F)(F)F)c4)c(Cl)c3)c21
Method in brief: as §1

[6] = compound: CC(C)C1=C2N=C(C=C(N2N=C1)NCC3=CC=CC=C3)NCCCCCCN
Method in brief: as §1

[7] = compound: CC(C)C[C@@H](C=O)NC(=O)[C@H](CC(C)C)NC(=O)[C@H](CC(C)C)NC(=O)OCc1ccccc1
Method in brief: as §1

[8] = compound: CC(C)N(C[C@H]1O[C@@H](n2cnc3c(N)ncnc32)[C@H](O)[C@@H]1O)[C@H]1C[C@@H](CCc2nc3cc(C(C)(C)C)ccc3[nH]2)C1 [pinometostat]
Method in brief: as §1

[9] = compound: CC1=C(C(CC(=O)N1)C2=CC=C(C=C2)C(F)(F)F)C(=O)NC3=C(C=C4C(=C3)C=NN4)F
Method in brief: as §1

[10] = compound: CC1=C(C2=C(C=C1)C(=O)C3=CC=CC=C3N2CCCN)C
Method in brief: as §1

[11] = compound: CC1=C(C=C(C=C1)NC(=O)C2=CC(=CC=C2)C(C)(C)C#N)NC3=CC4=C(C=C3)N=CN(C4=O)C
Method in brief: as §1

[12] = compound: CC1=C(C=C(C=C1)NC(=O)C2=CC(=CC=C2)N(C)C)NC(=O)C3=CC=C(C=C3)O
Method in brief: as §1

[13] = compound: CC1=CC=C(C=C1)SC2=C3C=C(SC3=CN=C2)C(=O)N
Method in brief: as §1

[14] = compound: CC1=NC(=CC=C1)C2=C(N=C(N2)C(C)(C)C)C3=CC4=NC=CN=C4C=C3
Method in brief: as §1

[15] = compound: CCCCN(Cc1ccc(C(=O)NO)cc1)C(=O)Nc1ccccc1 [Nexturastat A]
Method in brief: as §1

[16] = compound: CCCS(=O)(=O)Nc1ccc(F)c(C(=O)c2c[nH]c3ncc(-c4ccc(Cl)cc4)cc23)c1F [vemurafenib]
Method in brief: as §1

[17] = compound: CCCS(=O)(=O)Nc1ccc(F)c(C(=O)c2c[nH]c3ncc(Cl)cc23)c1F
Method in brief: as §1

[18] = compound: CCCc1cc(C)[nH]c(=O)c1CNC(=O)c1cc(-c2ccnc(N3CCN(C)CC3)c2)cc2c1cnn2C(C)C
Method in brief: as §1

[19] = compound: CCN(CC)Cc1ccc2cc(COC(=O)Nc3ccc(C(=O)NO)cc3)ccc2c1 [givinostat]
Method in brief: as §1

[20] = compound: CCN(CCCOc1ccc2c(Nc3cc(CC(=O)Nc4cccc(F)c4)[nH]n3)ncnc2c1)CCOP(=O)(O)O [barasertib]
Method in brief: as §1

Measured: log2 fold change

NUP93 (UniProt Q8N1F7)
inactive: [1] -0.129 | [2] -0.102 | [3] -0.037 | [4] 0 | [5] -0.082 | [6] -0.135 | [7] -0.008 | [8] 0.005 | [9] -0.031 | [10] 0.01 | [11] 0.032 | [12] 0.058 | [13] 0.004 | [14] 0.03 | [15] 0.039 | [16] 0.066 | [17] 0.096 | [18] 0.017 | [19] 0.064 | [20] 0.068

OGDH (UniProt Q02218)
inactive: [1] -0.06 | [2] 0.051 | [3] 0.03 | [4] 0.032 | [5] -0.054 | [6] 0.041 | [7] 0.016 | [8] 0.032 | [9] -0.059 | [10] 0.127 | [11] 0.107 | [12] -0.082 | [13] -0.015 | [14] -0.022 | [15] 0.044 | [16] -0.055 | [17] 0.018 | [18] 0.034 | [19] 0.021 | [20] -0.033

OPLAH (UniProt O14841)
inactive: [1] 0.044 | [2] 0.026 | [3] -0.018 | [4] -0.019 | [5] -0.028 | [6] 0.026 | [7] 0.001 | [8] 0.006 | [9] -0.011 | [10] 0.033 | [11] -0.02 | [12] 0.008 | [13] -0.004 | [14] -0.009 | [15] -0.027 | [16] -0.012 | [17] -0.016 | [18] 0 | [19] -0.056 | [20] 0.023

NUTF2 (UniProt P61970)
inactive: [1] 0.078 | [2] -0.061 | [3] 0 | [4] -0.159 | [5] -0.127 | [6] 0.017 | [7] -0.077 | [8] 0.012 | [9] -0.032 | [10] 0.163 | [11] -0.068 | [12] -0.122 | [13] 0.052 | [14] -0.008 | [15] -0.061 | [16] 0.003 | [17] 0.037 | [18] 0.019 | [19] -0.234 | [20] 0.039

Retrieved one by one from the entries so far, two records:
NUP93 (UniProt Q8N1F7)
inactive: [1] -0.129 | [2] -0.102 | [3] -0.037 | [4] 0 | [5] -0.082 | [6] -0.135 | [7] -0.008 | [8] 0.005 | [9] -0.031 | [10] 0.01 | [11] 0.032 | [12] 0.058 | [13] 0.004 | [14] 0.03 | [15] 0.039 | [16] 0.066 | [17] 0.096 | [18] 0.017 | [19] 0.064 | [20] 0.068

NUTF2 (UniProt P61970)
inactive: [1] 0.078 | [2] -0.061 | [3] 0 | [4] -0.159 | [5] -0.127 | [6] 0.017 | [7] -0.077 | [8] 0.012 | [9] -0.032 | [10] 0.163 | [11] -0.068 | [12] -0.122 | [13] 0.052 | [14] -0.008 | [15] -0.061 | [16] 0.003 | [17] 0.037 | [18] 0.019 | [19] -0.234 | [20] 0.039

(cont.)

NTPCR (UniProt Q9BSD7)
inactive: [1] 0.022 | [2] 0.004 | [3] -0.016 | [4] -0.033 | [5] -0.074 | [6] -0.049 | [7] -0.005 | [8] -0.029 | [9] 0.013 | [10] 0.028 | [11] 0.021 | [12] -0.003 | [13] 0.043 | [14] 0.096 | [15] -0.11 | [16] 0.045 | [17] 0.023 | [18] -0.037 | [19] 0.002 | [20] -0.009

NUP155 (UniProt O75694)
inactive: [1] -0.129 | [2] -0.027 | [3] 0.015 | [4] 0.066 | [5] -0.08 | [6] -0.154 | [7] -0.011 | [8] -0.043 | [9] -0.031 | [10] 0.04 | [11] 0.099 | [12] -0.027 | [13] 0.038 | [14] 0.107 | [15] -0.049 | [16] 0.018 | [17] 0.046 | [18] -0.034 | [19] 0.006 | [20] 0

NUDT5 (UniProt Q9UKK9)
inactive: [1] 0.029 | [2] 0.004 | [3] 0.012 | [4] -0.003 | [5] -0.015 | [6] 0.116 | [7] -0.043 | [8] -0.031 | [9] 0.023 | [10] -0.009 | [11] 0.02 | [12] 0.019 | [13] 0.026 | [14] 0.048 | [15] -0.089 | [16] -0.013 | [17] -0.005 | [18] 0.008 | [19] -0.002 | [20] -0.012

NSRP1 (UniProt Q9H0G5)
inactive: [1] -0.094 | [2] 0.021 | [3] -0.092 | [4] 0.056 | [5] 0.064 | [6] 0.006 | [7] 0.149 | [8] 0.129 | [9] 0.026 | [10] 0.157 | [11] -0.028 | [12] 0.016 | [13] -0.028 | [14] -0.057 | [15] 0.222 | [16] 0.001 | [17] 0.009 | [18] 0.031 | [19] 0.002 | [20] -0.007

NUS1 (UniProt Q96E22)
inactive: [1] 0.08 | [2] 0.016 | [3] 0.049 | [4] -0.099 | [5] 0.013 | [6] 0.042 | [7] 0.062 | [8] 0.084 | [9] -0.078 | [10] 0.032 | [11] -0.014 | [12] 0.002 | [13] 0.073 | [14] -0.047 | [15] -0.131 | [16] -0.036 | [17] -0.038 | [18] -0.139 | [19] -0.081 | [20] 0.05

NUP37 (UniProt Q8NFH4)
inactive: [1] -0.011 | [2] -0.012 | [3] -0.006 | [4] -0.089 | [5] -0.049 | [6] -0.02 | [7] -0.045 | [8] -0.046 | [9] 0.064 | [10] -0.06 | [11] 0.022 | [12] -0.006 | [13] -0.013 | [14] 0.048 | [15] -0.066 | [16] 0.017 | [17] 0.041 | [18] -0.038 | [19] 0.011 | [20] 0.023

OSGEP (UniProt Q9NPF4)
inactive: [1] -0.001 | [2] 0.013 | [3] -0.048 | [4] -0.03 | [5] 0 | [6] 0.02 | [7] -0.039 | [8] -0.056 | [9] 0.021 | [10] -0.011 | [11] -0.044 | [12] 0.013 | [13] 0 | [14] 0.069 | [15] -0.175 | [16] -0.01 | [17] 0.003 | [18] -0.002 | [19] 0.001 | [20] 0.009

NUDT2 (UniProt P50583)
inactive: [1] 0.051 | [2] 0.052 | [3] -0.089 | [4] 0.076 | [5] -0.03 | [6] -0.159 | [7] -0.017 | [8] -0.126 | [9] -0.129 | [10] -0.102 | [11] 0.008 | [12] -0.003 | [13] 0.019 | [14] 0 | [15] 0.032 | [16] 0.02 | [17] 0.048 | [18] 0.01 | [19] 0.17 | [20] 0.012

NUCB1 (UniProt Q02818)
inactive: [1] 0.039 | [2] -0.016 | [3] 0.031 | [4] -0.012 | [5] 0.012 | [6] 0.068 | [7] -0.019 | [8] -0.03 | [9] 0.01 | [10] -0.071 | [11] -0.016 | [12] 0.01 | [13] 0.009 | [14] 0.005 | [15] -0.044 | [16] -0.011 | [17] -0.025 | [18] -0.023 | [19] -0.022 | [20] -0.001

ODR4 (UniProt Q5SWX8)
inactive: [1] -0.083 | [2] -0.06 | [3] -0.012 | [4] -0.005 | [5] -0.004 | [6] 0.087 | [7] -0.006 | [8] 0.045 | [9] -0.038 | [10] 0.093 | [11] -0.054 | [12] -0.03 | [13] 0.015 | [14] -0.027 | [15] 0.087 | [16] 0.033 | [17] 0.032 | [18] 0.069 | [19] 0.034 | [20] 0

P4HB (UniProt P07237)
inactive: [1] 0.042 | [2] -0.022 | [3] 0.017 | [4] -0.07 | [5] 0.03 | [6] 0.037 | [7] -0.042 | [8] -0.063 | [9] 0.021 | [10] -0.029 | [11] -0.008 | [12] 0.019 | [13] -0.007 | [14] 0.007 | [15] -0.095 | [16] -0.027 | [17] -0.044 | [18] 0.003 | [19] -0.039 | [20] 0.004

NUP43 (UniProt Q8NFH3)
inactive: [1] 0.055 | [2] 0.02 | [3] -0.021 | [4] -0.006 | [5] 0.031 | [6] 0.032 | [7] -0.007 | [8] -0.026 | [9] 0.016 | [10] -0.03 | [11] -0.014 | [12] -0.019 | [13] 0.029 | [14] 0.031 | [15] 0.019 | [16] -0.016 | [17] 0.068 | [18] -0.003 | [19] -0.103 | [20] -0.004
